{
  "source": "paper PMC5421940",
  "biological_target": "GFP-MCPyV tAg N100A (Merkel cell polyomavirus)",
  "assay": "co-IP",
  "note": "No constants are given. Whether binding was seen depends on the method and setting. In cells and extracts the contact can be indirect. A result given as binding can be weak or reduced; the word gives no strength. Sequences can lack the tags named with a protein.",
  "data": [
    {"binder": "HA-PP4R1 (expressed in cells) (protein, UniProt Q8TF05 1-950) MADLSLLQEDLQEDADGFGVDDYSSESDVIIIPSALDFVSQDEMLTPLGRLDKYAASENIFNRQMVARSLLDTLREVCDDERDCIAVLERISRLADDSEPTVRAELMEQVPHIALFCQENRPSIPYAFSKFLLPIVVRYLADQNNQVRKTSQAALLALLEQELIERFDVETKVCPVLIELTAPDSNDDVKTEAVAIMCKMAPMVGKDITERLILPRFCEMCCDCRMFHVRKVCAANFGDICSVVGQQATEEMLLPRFFQLCSDNVWGVRKACAECFMAVSCATCQEIRRTKLSALFINLISDPSRWVRQAAFQSLGPFISTFANPSSSGQYFKEESKSSEEMSVENKNRTRDQEAPEDVQVRPEDTPSDLSVSNSSVILENTMEDHAAEASGKPLGEISVPLDSSLLCTLSSESHQEAASNENDKKPGNYKSMLRPEVGTTSQDSALLDQELYNSFHFWRTPLPEIDLDIELEQNSGGKPSPEGPEEESEGPVPSSPNITMATRKELEEMIENLEPHIDDPDVKAQVEVLSAALRASSLDAHEETISIEKRSDLQDELDINELPNCKINQEDSVPLISDAVENMDSTLHYIHSDSDLSNNSSFSPDEERRTKVQDVVPQALLDQYLSMTDPSRAQTVDTEIAKHCAYSLPGVALTLGRQNWHCLRETYETLASDMQWKVRRTLAFSIHELAVILGDQLTAADLVPIFNGFLKDLDEVRIGVLKHLHDFLKLLHIDKRREYLYQLQEFLVTDNSRNWRFRAELAEQLILLLELYSPRDVYDYLRPIALNLCADKVSSVRWISYKLVSEMVKKLHAATPPTFGVDLINELVENFGRCPKWSGRQAFVFVCQTVIEDDCLPMDQFAVHLMPHLLTLANDRVPNVRVLLAKTLRQTLLEKDYFLASASCHQEAVEQTIMALQMDRDSDVKYFASIHPASTKISEDAMSTASSTY", "values": [
      {"measurement": "binding", "value": "binds"}
    ]}
  ]
}
